Paper PMC11215771
Results are given in words; binding and its absence hold for the method and conditions named. In cells and extracts the contact can be indirect. Some binding calls cover weakened binding; strength is not graded here.

Protein sequences, listed by entry. Tags and fused reporters are not part of them. Lines headed by an entry give the natural chain unless they say otherwise; changes in a name come on top. Chains listed by the source or under a name are the forms on record and can include a tag or linker. Residues count along the entry.
human BACE1 (β-site of APP cleaving enzyme 1), wild type, untagged, expressed in HEK293T cells (P56817, residues 46-501): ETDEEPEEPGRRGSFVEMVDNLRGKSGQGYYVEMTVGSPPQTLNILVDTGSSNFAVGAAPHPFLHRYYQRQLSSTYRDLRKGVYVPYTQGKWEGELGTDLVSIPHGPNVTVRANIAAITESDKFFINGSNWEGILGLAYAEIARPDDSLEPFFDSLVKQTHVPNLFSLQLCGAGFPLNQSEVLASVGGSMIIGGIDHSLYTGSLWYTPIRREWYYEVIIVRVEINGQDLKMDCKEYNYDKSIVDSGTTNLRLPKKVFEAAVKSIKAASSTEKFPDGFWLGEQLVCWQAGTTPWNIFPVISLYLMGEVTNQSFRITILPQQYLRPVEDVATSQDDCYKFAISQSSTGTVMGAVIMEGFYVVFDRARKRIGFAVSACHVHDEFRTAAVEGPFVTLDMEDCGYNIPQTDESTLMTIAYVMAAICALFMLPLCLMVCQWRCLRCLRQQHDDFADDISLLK
human BACE1 D289N (proteolytically inactive variant), untagged, expressed in HEK293T cells (P56817-1, form named): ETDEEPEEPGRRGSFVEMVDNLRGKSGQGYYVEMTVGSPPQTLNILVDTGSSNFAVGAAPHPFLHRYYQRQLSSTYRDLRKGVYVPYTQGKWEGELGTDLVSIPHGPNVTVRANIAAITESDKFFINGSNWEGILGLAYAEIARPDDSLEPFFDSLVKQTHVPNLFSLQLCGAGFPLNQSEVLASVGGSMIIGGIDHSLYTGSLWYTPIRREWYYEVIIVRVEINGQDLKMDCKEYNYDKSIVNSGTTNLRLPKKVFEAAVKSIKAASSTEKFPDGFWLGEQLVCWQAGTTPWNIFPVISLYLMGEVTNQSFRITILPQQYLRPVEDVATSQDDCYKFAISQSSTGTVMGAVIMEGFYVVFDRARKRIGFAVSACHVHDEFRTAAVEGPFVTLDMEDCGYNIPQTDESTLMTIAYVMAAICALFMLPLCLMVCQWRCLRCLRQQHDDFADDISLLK

Target: human BACE1 (β-site of APP cleaving enzyme 1), wild type, untagged, expressed in HEK293T cells (human) (UniProt P56817)

binding: binds
Substance: human BACE1 D289N (proteolytically inactive variant), untagged, expressed in HEK293T cells (from UniProt P56817-1 46-501) (enzyme)
